Source: PubChem BioAssay AID504808 (Drosophila RNAi Screening Center, 2011)

- Purpose: 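Fly genes required to hold E2F transcription in check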 (primary screen)
- Cells: Drosophila S2 cells
- Knock-down reagent: long dsRNA against Drosophila genes
- Measurement: 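Firefly luciferase driven by E2F sites, normalised to Renilla luciferase on the same minimal promoter, measured by plate reader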
- Scale: E2F firefly: higher = more E2F reporter activity; Renilla normaliser: higher = more normaliser reporter signal
- Call rule: 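a knock-down counted as active when the firefly/Renilla E2F signal rose above 50%, a threshold chosen arbitrarily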
The deposit covers about 21,000 reagents; this is an unselected part of those with a known target gene and a result. Over the whole deposit, 18 (0.084%) got an active call. 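Raw counts without plate normalisation, one of two replicates; the ratio scores behind the calls were not deposited.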 A number with no mark means an inactive call. Names joined by + are all predicted targets of the reagent. The record does not give: the amount of reagent, the time to read-out.

The first 5 entries, to show the layout:
target gene	dsRNA	E2F firefly, rep 1	Renilla normaliser, rep 1
ppk5	DRSC11492	81904	3653
edin	DRSC09488	1.41e5	3939
CG13810	DRSC08344	1.03e5	4107
tomboy20	DRSC14913	1.50e5	6496
RpS9	DRSC11273	57368	3489

The list itself, from the start:
target gene	dsRNA	E2F firefly, rep 1	Renilla normaliser, rep 1
ppk5	DRSC11492	81904	3653
edin	DRSC09488	1.41e5	3939
CG13810	DRSC08344	1.03e5	4107
tomboy20	DRSC14913	1.50e5	6496
RpS9	DRSC11273	57368	3489
ArfGAP3	DRSC11794	65164	3338
Sap-r	DRSC16849	89774	940
CG14132	DRSC10136	1.26e5	6307
TBC1D16	DRSC02841	1.58e5	5009
CG13067	DRSC09950	1.46e5	7743
CG31323	DRSC14901	1.02e5	6151
Art2	DRSC00627	1.58e5	5384
CG4198	DRSC18354	8398	888
CG3841	DRSC02730	1.53e5	5309
Qsox3	DRSC16096	1.55e5	7963
CkIIbeta2	DRSC07361	1.54e5	5354
PNKP	DRSC16512	1.46e5	6532
apt	DRSC04671	78510	3639
CG9624	DRSC16523	96953	5322
CG9812	DRSC04566	1.03e5	4288
CG9550	DRSC03262	1.54e5	5282
CG7728	DRSC10907	65757	3605
CG31205	DRSC13438	78222	2721
epsilonCOP	DRSC02003	86508	4102
Rtnl2	DRSC12609	1.41e5	6390
THG	DRSC01896	1.04e5	4474
CG14711 + Zaf1	DRSC14934	1.59e5	7328
Ran-like	DRSC10918	67024	3166
Npc2c	DRSC15523	1.35e5	6393
CG14332	DRSC14811	1.18e5	5887
CG12126	DRSC06103	1.60e5	5524
CG34150	DRSC13689	80375	2372
Nplp2	DRSC09824	1.30e5	7147
PpD5	DRSC04641	1.05e5	4942
CG34176	DRSC00435	1.33e5	5195
CG5390	DRSC02855	1.39e5	4654
CG15109	DRSC06536	1.47e5	4955
RpL13A	DRSC12265	44505	3210
SK	DRSC17387	75923	2358
SK	DRSC17751	86849	6673
SK	DRSC17887	56227	4362
SK	DRSC17888	47639	3784
SK	DRSC18353	7970	776
CG5180	DRSC15731	1.34e5	7487
CG4666	DRSC18379	1.05e5	6178
ABCB7	DRSC08603	93352	4266
GC2	DRSC14476	1.27e5	6481
mtrm	DRSC10322	65036	3172
Marcal1	DRSC02718	1.41e5	5127
Hcs	DRSC12070	80442	4180
Hcs	DRSC12256	1.40e5	6314
PolrMT	DRSC00660	86733	3805
CG12490	DRSC04123	1.00e5	4514
CG17290	DRSC06662	1.92e5	4731
Acox57D-p	DRSC04560	83460	2923
Unc-115a	DRSC12749	64668	3927
CG11095	DRSC19375	7654	768
